The values that follow come from patent US20090274695A1.

Amino acid sequences for entries named in this document (tags omitted). Residues count along the entry.
UniProt Q03405, residues 23-303: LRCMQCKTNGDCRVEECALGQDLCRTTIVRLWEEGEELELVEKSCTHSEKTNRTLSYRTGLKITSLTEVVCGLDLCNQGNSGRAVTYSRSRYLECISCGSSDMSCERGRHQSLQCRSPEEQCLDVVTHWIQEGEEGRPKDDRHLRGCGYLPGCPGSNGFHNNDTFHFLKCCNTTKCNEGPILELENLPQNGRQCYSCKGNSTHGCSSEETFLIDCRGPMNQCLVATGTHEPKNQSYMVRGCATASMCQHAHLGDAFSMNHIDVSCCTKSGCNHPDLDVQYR

The target in this assay is Recombinant human uPAR (R&D Systems), immobilized on a CM5 sensor chip (human) (UniProt Q03405). The assay can be described thus: SPR on immobilized uPAR.

These are yes or no findings as the source states them, for the method shown. Some results given as binding are weak or reduced against the parent protein; the word gives no strength.

B1: CYTL1 expressed in mammalian cells (ligand)
chain: TPPTCYSRMRALSQEITRDFNLLQVSEPSEPCVRYLPRLYLDIHNYCVLDKLRDFVASPPCWKVAQVDSLKDKARKLYTIMNSFCRRDLVFLLDDCNALEYPIPVTTVLPDRQR
Regarding B1, the binding result was “binds”.

B2: CYTL1 expressed in bacteria (ligand)
chain: TPPTCYSRMRALSQEITRDFNLLQVSEPSEPCVRYLPRLYLDIHNYCVLDKLRDFVASPPCWKVAQVDSLKDKARKLYTIMNSFCRRDLVFLLDDCNALEYPIPVTTVLPDRQR
B2: the binding result is reported as “binds”.
